According to PubChem BioAssay AID2685 (National Center for Advancing Translational Sciences (NCATS), 2010):
This is one part of the list. Further columns of the screen follow, without active or inactive calls. The list favours compounds with an active or inconclusive main result. Words in brackets tell the shape of the fitted curve; partial curves, single points and poor fits give uncertain potencies.

Assay: qHTS Assay for Lipid Storage Modulators in Drosophila S3 Cells;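 for cell number change: cells counted by Cell Tracker Red CMTPX staining in the red channel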
Settings: BODIPY lipid droplet fluorescence, 18-24 h; for cell number change: measured here: cell count max response, cells fed with added oleic acid
Method in brief: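 Drosophila S3 cells got compounds at several concentrations plus oleic acid (400 uM solution). Laser-scanning cytometry with 488 nm excitation read lipid droplets at 500-530 nm and cells at 575-640 nm. Percent activity was relative to 20 uM Triacsin C.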

[1] = measured here: lipid fluorescence (Fed channel) AC50, cells fed with added oleic acid
[2] = measured here: cell number channel AC50, cells fed with added oleic acid

SMILES	cell number change [%]	AC50 [1]	AC50 [2]
Cc1cc(-c2nc3ccccc3c(=O)o2)ccc1[N+](=O)[O-]	-1.92	1.03 µM [falling, full curve, poor fit]	
Cc1ccc2c(CC(=O)NCC3(N4CCOCC4)CCCCC3)coc2c1C	-12.9		
Cc1ccc(CC(=O)N(Cc2ccccc2)c2ccccn2)cc1	-11.8		2.59 µM [rising, partial curve]
COc1ccc(NC(=O)Cn2nnc(C(=O)NCc3cccs3)c2N)cc1Cl	50.7	29.1 µM [rising, partial curve, poor fit]	20.6 µM [rising, partial curve, poor fit]
COC(=O)c1ccc(Cl)c(NC(=O)CSc2nnc(-c3ccncc3)o2)c1	-11.3		
CCNC(=O)c1ccc(NC(=O)CC2SC(N3CCCCC3)=NC2=O)cc1 (configuration not stated)	1.65	1.3 µM [rising, partial curve]	
COC(=O)c1sc(-c2ccc(Cl)cc2)cc1NC(=O)CSCC(=O)O	8.56	8.2 µM [rising, partial curve]	
Cc1nc(C(=O)N2CCCC(Nc3ccc(C)c(C)c3)C2)cs1 (configuration not stated)	21.7		
CCC(Sc1nc2ncccc2[nH]1)C(=O)NC1CCCC1 (configuration not stated)	23.7	2.06 µM [rising, single point]	1.16 µM [rising, full curve, poor fit]
C(=N\c1c(-c2ccccc2)nc2n1CCS2)/c1ccccc1	6.48	29.1 µM [rising, single point]	
Cc1sc2ncnc(Sc3nnnn3-c3ccc(Cl)cc3)c2c1C	-0.983		
Cc1cc(NC(=O)CSc2ncnc3sccc23)no1	-25.7	4.11 µM [falling, partial curve, poor fit]	4.11 µM [falling, single point]
Cc1ccc(N2C(=O)CSC2=S)cc1C	-1.28		
COC(=O)/C(C#N)=C(/Nc1ccc(F)c(Cl)c1)C(F)(F)F	0.32	6.51 µM [rising, single point]	
CC(c1ccccc1C(O)c1ccccc1)N(C)C (configuration not stated)		6.51 µM [rising, partial curve]	
COc1ccccc1NC(=O)C1CCN(S(=O)(=O)c2cccs2)CC1	-17.9	0.0103 µM [falling, full curve, poor fit]	6.51 µM [falling, single point]
CC(Sc1ccc(Br)cc1)C(N)=O (configuration not stated)		0.00206 µM [falling, full curve, poor fit]	2.31 µM [rising, single point]
Cn1nnnc1SCC(=O)Nc1ccccc1-c1ccccc1	9.53	6.51 µM [rising, single point]	
COc1cc(NC(=O)c2cc(OC)c(OC)c(OC)c2)cc(-n2cnnn2)c1	54.8	13 µM [falling, partial curve]	18.4 µM [rising, single point]
COc1cc(NC(=O)c2cc(OC)c(OC)c(OC)c2)ccc1NC(=O)c1cccs1	-21.4	25.9 µM [falling, single point]	

Looked up above.
AC50 [1], `COC(=O)c1sc(-c2ccc(Cl)cc2)cc1NC(=O)CSCC(=O)O` is entered as 8.2 µM [rising, partial curve]
AC50 [1], `CC(c1ccccc1C(O)c1ccccc1)N(C)C` (configuration not stated) is entered as 6.51 µM [rising, partial curve]

(more compounds)

SMILES	cell number change [%]	AC50 [1]	AC50 [2]
Cc1[nH]nc2c1C(c1ccc(F)cc1)C(C#N)=C(N)O2 (configuration not stated)	-11.2	0.206 µM [rising, partial curve]	
O=C(N/N=C/c1ccc2c(c1)OCO2)c1sc2cc(Cl)ccc2c1Cl	82.6	6.51 µM [rising, single point]	4.11 µM [rising, full curve]
COc1ccc(-n2c(-c3ccc(Br)cc3)n[nH]c2=S)cc1	10.2		
Cc1ccccc1C(=O)N(CC(=O)Nc1sc(C)c(C)c1C(N)=O)C1CCCC1	-9.91		
Cc1ccc2c(C)c(C(=O)N3CCCCC3CO)oc2c1C (configuration not stated)	6.42	3.66 µM [rising, single point]	
CC(=O)Nc1ccc(C(=O)CSc2nnc(C)o2)cc1	-22.4	0.092 µM [falling, full curve, poor fit]	
CC1CCN(S(=O)(=O)c2csc(C(=O)Nc3ccccc3)c2)CC1	15	6.51 µM [falling, single point]	
COc1ccc([C@H]2CC(=O)C=C(c3cccc(C(C)C)c3)C2)cc1	-16.5	3.26 µM [falling, full curve]	
CC1CCCN(C(=S)Nc2ccc(F)cc2)C1 (configuration not stated)	-51.5	0.366 µM [falling, full curve]	1.03 µM [falling, full curve]
Cc1c(Cl)cccc1NC(=S)NCCc1ccc(C(F)(F)F)cc1	-41	8.2 µM [falling, partial curve]	11.6 µM [falling, partial curve]
COc1ccc(OCCC(=O)NCc2ccccc2)cc1		0.184 µM [falling, full curve, poor fit]	
CCCc1cc(=O)[nH]c(Nc2cc(OC)ccc2OC)n1	1.82	4.11 µM [rising, partial curve, poor fit]	
CN1CCC(=C2c3ccccc3C=Cc3ccccc32)CC1	-9.44		6.51 µM [falling, single point]
COc1cccc(NC(=O)C(=O)c2cn(CC(=O)N3CCCC3)c3ccccc23)c1	9.73	6.51 µM [rising, partial curve]	
COc1ccc2ccccc2c1C(=O)/C=C\c1ccoc1	0.689		3.66 µM [rising, single point]
CCCCn1c(N)c(N(CCOC)C(=O)c2ccc(N3C(=O)CCC3=O)cc2)c(=O)[nH]c1=O	-22	5.17 µM [falling, full curve, poor fit]	
CC(=O)Oc1ccc(-c2ccc(C(=O)O)cc2)cc1	-4.06	25.9 µM [falling, partial curve]	
O=C(NCCc1ccc(Cl)cc1)c1cnc2n(c1=O)CCS2	41.4	8.2 µM [rising, partial curve]	6.51 µM [rising, partial curve]
COCCN(CCOC)S(=O)(=O)c1ccc(C(=O)Nc2nc(-c3ccncc3)cs2)cc1	36.5		
